# Whole data set: some 33,000 sequences, median “E-score (-0.5 to 0.5)” near -0.016, cut for the highest 2% near 0.3. Some of the results follow.
# Target: T1, Yer184c (UniProt P39961)
# T1 sequence: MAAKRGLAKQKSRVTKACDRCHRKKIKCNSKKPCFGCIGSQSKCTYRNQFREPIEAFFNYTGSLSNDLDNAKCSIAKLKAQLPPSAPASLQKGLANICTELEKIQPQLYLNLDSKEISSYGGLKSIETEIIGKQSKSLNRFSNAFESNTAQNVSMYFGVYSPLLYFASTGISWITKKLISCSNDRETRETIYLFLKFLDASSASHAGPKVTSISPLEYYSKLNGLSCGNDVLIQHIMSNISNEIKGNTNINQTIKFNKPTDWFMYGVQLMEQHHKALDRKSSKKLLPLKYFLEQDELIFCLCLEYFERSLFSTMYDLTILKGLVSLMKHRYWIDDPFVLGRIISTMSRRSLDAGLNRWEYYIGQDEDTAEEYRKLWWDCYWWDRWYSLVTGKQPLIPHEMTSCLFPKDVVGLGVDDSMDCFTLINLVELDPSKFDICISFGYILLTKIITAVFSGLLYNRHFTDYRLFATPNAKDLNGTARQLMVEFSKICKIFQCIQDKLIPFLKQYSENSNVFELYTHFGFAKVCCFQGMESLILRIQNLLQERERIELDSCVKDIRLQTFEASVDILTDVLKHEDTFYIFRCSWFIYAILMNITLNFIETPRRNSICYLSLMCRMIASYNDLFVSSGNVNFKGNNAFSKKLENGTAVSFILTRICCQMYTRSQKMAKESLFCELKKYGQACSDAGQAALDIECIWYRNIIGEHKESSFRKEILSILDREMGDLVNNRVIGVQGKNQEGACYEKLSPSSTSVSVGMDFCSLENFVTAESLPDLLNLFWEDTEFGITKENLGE
# Assay: PBM E-score (8-mer binding enrichment) (E-score (-0.5 to 0.5)); higher = stronger / more preferred TF binding
# Details: protein concentration: 100 nM; construct: GST-full length
# Procedure, shortened: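 E-scores (a modified Wilcoxon-Mann-Whitney statistic) were assigned by the Universal PBM Analysis Suite to every ungapped eight-base word pooled with its reverse complement. The input came from universal all-10-mer Agilent arrays made double-stranded by primer extension and probed with GST-tagged yeast transcription factors at about 100-200 nM. Fluorescent anti-GST detected bound protein, and masliner normalised the scans.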
row,Sequence,PBM E-score
1,AACCACGG,-0.0108
2,CCCAGCGG,-0.118
3,ATTGGGCC,0.0463
4,CGGCATTA,0.416
5,AGGAGGAC,-0.337
6,CCGCTCTA,0.0749
7,CTGGGGGA,-0.244
8,CAATGGGG,-0.192
9,CATAGTTC,0.0414
10,CGAACACC,0.0223
11,CGGCGAGA,0.192
12,ATGCCACC,-0.28
13,CTACATAC,-0.0774
14,ATTATAGC,0.0251
15,CCTGCATC,-0.175
16,AATGCCAG,-0.0319
17,ATGCGTAG,-0.0396
18,ACGATACT,-0.14
19,CGCCAGCA,-0.175
20,TATATGCA,-0.0124
21,GTAGTAGA,0.0474
22,CAACAACA,0.162
23,CAGTGGAC,-0.0743
24,ATGCCTCA,-0.0508
25,CGGAGCAG,0.232

row,Sequence,PBM E-score
1,GCTGGCGA,-0.123
2,AGTACGAA,0.271
3,TAGTCGAA,-0.0527
4,ATTAATCG,0.16
5,GGCTCTGA,-0.0422
6,ATCACTTA,0.0177
7,GTGGGGCA,-0.175
8,CTGTAGGC,-0.0897
9,TCTCATCA,-0.0788
10,CTTACTTA,-0.174
11,CACGTTAC,-0.15
12,GGTGTAAA,-0.098
13,CTACACTA,-0.0776
14,ATAGTTAC,0.0694
15,ACAGGTCG,-0.258
16,AACCAACC,-0.161
17,AATTGTGG,-0.189
18,GATTTAAC,0.13
19,CTACGGCA,0.258
20,GTCGTTCA,0.042
21,CCGGCCAA,0.239
22,GGTTTCTA,0.0568
23,CTGTGTTA,0.00808
24,ATTATCCA,0.0655
25,GCACCCTA,-0.245

row,Sequence,PBM E-score
1,AATCCGTA,0.0372
2,AATCTTTC,0.0963
3,GTATGAAC,0.101
4,AATCACTG,0.0269
5,GCTGGGAC,-0.148
6,ACACTCGG,0.146
7,ATACACTG,-0.15
8,GACATACC,-0.128
9,AAGACACT,-0.0168
10,AGGTCTGG,-0.243
11,ATATACCC,0.021
12,CGCGAGCG,0.0639
13,ATGAGAAT,0.204
14,CGCACGAG,-0.141
15,CTATACAG,0.0752
16,AGTTCTTA,0.0659
17,CACGTCTA,-0.263
18,GGTTATAC,-0.121
19,CGGTGCGC,0.0189
20,CACTGCTC,-0.00605
21,AGATCGCA,0.0384
22,AACAGTCC,-0.185
23,AGGAAGCG,-0.042
24,GGCGGGCA,-0.0135
25,ACGGACCT,0.0643

# Some of the entries so far, as tab-separated lines.
row	Sequence	PBM E-score
16	AGTTCTTA	0.0659
17	CACGTCTA	-0.263
18	GGTTATAC	-0.121
19	CGGTGCGC	0.0189

# Remaining list, next part.

row,Sequence,PBM E-score
1,CGAAGAGA,0.181
2,AGGCATCA,-0.163
3,CGCCGACC,0.135
4,CCGCACCC,-0.0287
5,ACGCCCAG,-0.225
6,TCAGATAA,0.153
7,AGAAAGCT,0.107
8,CCGCTAGA,-0.231
9,GGGACTGA,-0.215
10,CTGGATGA,-0.00515
11,AGAAGGTG,0.0161
12,GGGGTAAA,0.0458
13,AGTAGGAG,-0.156
14,ACCGTTCC,0.28
15,CCGTGAGC,-0.0292
16,AGAGACGA,0.0423
17,GCAGTGGC,-0.00847
18,CACCAGTA,-0.156
19,ATAGGGGC,-0.319
20,GAACTGGC,-0.0976
21,CCGAATCG,0.263
22,AGACCACA,-0.0838
23,AGAAGAGC,-0.03
24,ACTACGCG,-0.00829
25,AAACGTCG,-0.044

# Six neighbouring entries already listed, quoted:
row,Sequence,PBM E-score
2,AGGCATCA,-0.163
3,CGCCGACC,0.135
4,CCGCACCC,-0.0287
5,ACGCCCAG,-0.225
6,TCAGATAA,0.153
7,AGAAAGCT,0.107

# The listing continues:

row,Sequence,PBM E-score
1,AATTATGT,0.157
2,AAGTGCCA,-0.0635
3,GTTGTGGA,-0.053
4,GGATGCAA,0.022
5,CGAAAAAC,0.101
6,CCCGTCCC,-0.22
7,GTAACTGA,-0.109
8,CGAGCATA,-0.149
9,CAAGGCTC,-0.354
10,AAACTGGA,0.0243
11,CATTACAA,0.0533
12,TCAACCGA,0.226
13,CAGTATGG,0.0408
14,CCACAGTC,-0.3
15,CAGCGTAA,0.0438
16,CGATCGTC,0.0985
17,AAACATAT,0.281
18,ACCTTAGC,-0.142
19,CTAGAACA,0.248
20,CCGTAAGA,-0.0592
21,AACCCCGA,0.0551
22,TGAGCGAA,0.0953
23,GGGCCCCC,-0.304
24,AGCGTACG,-0.172
25,AGGGTCAT,-0.295

row,Sequence,PBM E-score
1,AACGTCGT,-0.0549
2,GTGTAGTA,-0.0806
3,CTGGCTGA,-0.134
4,GACCTAAA,0.0912
5,AGGTAGGA,-0.06
6,ACACGATA,0.248
7,GAAAGCAA,0.248
8,TGGTCCAA,-0.172
9,CTAGGGAG,-0.261
10,AATCGGTA,0.102
11,AGTTGGAA,0.0474
12,TCACCTAA,0.163
13,GAATGTGA,-0.082
14,CATTCGCA,-0.0503
15,GAGAGCTC,-0.151
16,AGATCCAG,-0.0113
17,ATCAGTTC,-0.122
18,CTCCACTA,-0.046
19,AATCGCGT,0.0463
20,AGTCGCAA,-0.0383
21,ATTAATAG,0.181
22,CCCACCAA,-0.204
23,AAGGCCCT,-0.133
24,CTCAAAGC,0.114
25,CAGTGTCC,0.00844

row,Sequence,PBM E-score
1,CCACCTTA,-0.163
2,GTCAGGAA,0.0403
3,ATAGCTTG,0.025
4,AACCGGCT,0.264
5,ACGCTGAT,-0.0115
6,GTAAAATA,0.158
7,AATGAGCG,0.122
8,CGATATCC,0.166
9,AATTGGTG,-0.0396
10,GCGTCCAC,-0.0319
11,ACGGCGTC,0.0138
12,CGTATAAC,0.106
13,CATTTCCA,0.0456
14,GCTTAAAA,0.194
15,ATACTGCC,0.0554
16,AACAAGTC,-0.0759
17,AAGACATA,-0.183
18,CTCGGGGA,0.079
19,ACATCTAT,0.215
20,CTCCAGAA,-0.161
21,GGACATAA,0.0544
22,AGCACCCC,-0.249
